Test results from article PMC2816663.
These are yes or no findings as the source states them, for the method shown. In cells and extracts the contact can be indirect. Some entries that bind do so weakly or less than the wild type.

Protein sequences, listed by entry. Tags and fused reporters are not part of them.
UniProt Q9NV56: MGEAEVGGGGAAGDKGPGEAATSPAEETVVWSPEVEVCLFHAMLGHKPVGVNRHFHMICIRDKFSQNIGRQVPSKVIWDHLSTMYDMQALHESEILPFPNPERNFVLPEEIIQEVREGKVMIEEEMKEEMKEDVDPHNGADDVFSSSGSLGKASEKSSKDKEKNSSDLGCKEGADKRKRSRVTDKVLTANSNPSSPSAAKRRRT
UniProt Q9H0E9: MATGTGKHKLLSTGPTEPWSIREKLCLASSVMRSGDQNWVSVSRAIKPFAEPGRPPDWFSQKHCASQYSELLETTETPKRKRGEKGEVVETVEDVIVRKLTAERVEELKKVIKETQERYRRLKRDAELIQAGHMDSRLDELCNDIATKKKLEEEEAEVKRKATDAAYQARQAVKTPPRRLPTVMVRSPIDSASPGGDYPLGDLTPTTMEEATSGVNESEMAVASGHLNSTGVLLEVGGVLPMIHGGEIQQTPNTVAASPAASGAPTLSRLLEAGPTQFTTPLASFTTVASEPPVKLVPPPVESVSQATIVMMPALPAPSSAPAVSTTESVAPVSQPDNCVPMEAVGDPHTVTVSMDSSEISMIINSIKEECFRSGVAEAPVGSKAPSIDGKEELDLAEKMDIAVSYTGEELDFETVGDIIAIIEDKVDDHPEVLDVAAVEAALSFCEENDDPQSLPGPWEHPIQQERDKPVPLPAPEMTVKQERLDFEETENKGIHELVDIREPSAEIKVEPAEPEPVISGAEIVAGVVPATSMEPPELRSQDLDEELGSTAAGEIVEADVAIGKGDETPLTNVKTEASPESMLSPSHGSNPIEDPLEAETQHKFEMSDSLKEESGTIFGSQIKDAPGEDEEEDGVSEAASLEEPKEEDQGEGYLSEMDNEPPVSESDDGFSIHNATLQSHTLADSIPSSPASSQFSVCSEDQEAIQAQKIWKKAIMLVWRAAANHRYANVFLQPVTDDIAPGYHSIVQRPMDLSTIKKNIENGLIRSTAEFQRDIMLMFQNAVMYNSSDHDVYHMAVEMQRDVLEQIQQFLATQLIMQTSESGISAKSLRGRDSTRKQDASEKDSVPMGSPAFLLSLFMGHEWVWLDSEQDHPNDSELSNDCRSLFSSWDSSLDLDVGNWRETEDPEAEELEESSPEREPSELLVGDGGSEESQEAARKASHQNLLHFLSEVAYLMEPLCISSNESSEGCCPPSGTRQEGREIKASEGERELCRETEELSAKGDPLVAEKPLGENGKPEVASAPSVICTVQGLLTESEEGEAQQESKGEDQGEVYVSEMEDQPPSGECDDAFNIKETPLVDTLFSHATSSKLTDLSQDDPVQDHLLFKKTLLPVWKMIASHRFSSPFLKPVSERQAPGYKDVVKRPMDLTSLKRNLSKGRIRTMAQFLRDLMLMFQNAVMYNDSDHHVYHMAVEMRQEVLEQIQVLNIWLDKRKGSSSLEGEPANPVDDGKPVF

Tests used:
[1] = biological target: Myc/His-tagged MRGBP (MRG-binding protein, C20orf20), wild type (human) (UniProt Q9NV56); assay: co-IP; immunoprecipitation experiment using BRD8 isoform 2 expression plasmid (Supplementary Figure 1A); cells and antibodies not given
[2] = biological target: endogenous MRGBP (human (endogenous in SW480)) (UniProt Q9NV56); assay: co-IP; endogenous proteins; nuclear extract from SW480 cells with anti-MRGBP or anti-p120 (BRD8) antibody, Protein G-Sepharose overnight at 4°C; normal rabbit IgG as negative control

Row | binding [1] | binding [2] | Substance
1 | binds | – | BRD8 isoform 2 (from UniProt Q9H0E9 1-1235)
2 | – | binds | endogenous BRD8 (from UniProt Q9H0E9 1-1235)
